Results: PubChem BioAssay AID248 (DTP/NCI, 2004)
The list shows only some results of the screen, not a fair sample: it gathers tests that were run many times, whatever their T/C, doses with no T/C, and many T/C values between a quarter and a half above the control. Other doses and runs of a compound stand elsewhere. T/C: endpoint of the treated group in % of that of the vehicle group. Some doses have a count of surviving animals in place of a T/C: the source holds a T/C of zero for them, seemingly a mark for toxic or unscored doses. Some doses without a T/C left all or most animals alive at the check, yet need not have been tolerated: survival well below the control is almost never listed, so the zero probably covers shortened survival too. Survivors were counted at the toxicity check, usually on the fifth day, unless a day is given; later deaths do not show. Schedule codes are those of the source, read here as Q, the interval in days (D) or hours (H), X, the number of doses. Some schedules carry Z or #; the key to these is not given. For survival time, this PubChem deposit counts one and a half times the control or more as active, and values a quarter to a half above the control carry no call in these data; other NCI protocols may use other cut-offs. Some doses were run more than once; their values stand side by side, smallest first. Additions like (4×) count equal records among those shown.

Tested on: L1210 leukemia ip in BDF1 mice, survival T/C
Assay: NCI In Vivo Anticancer Drug Screen. Data for tumor model L1210 Leukemia (intraperitoneal) in B6D2F1 (BDF1) mice
Conditions: T/C endpoint: mean survival time, higher T/C = longer survival
[1] = dose: 100.0 mg/kg/injection, schedule: Q01DX009 (ip), vehicle: saline with Tween-80
[2] = dose: 200.0 mg/kg/injection, schedule: Q01DX009 (ip), vehicle: saline with Tween-80
[3] = dose: 400.0 mg/kg/injection, schedule: Q01DX009 (ip), vehicle: saline with Tween-80

SMILES: CCOc1ccc(NC(=S)NC(=O)C(C)Oc2ccccc2)cc1 (configuration not stated)
- T/C [1]: 91 (2×), 92, 96 % of control
- T/C (dose: 100.0 mg/kg/injection, schedule: Q04DX002 (ip), vehicle: saline with Tween-80): 87, 95, 96, 104 % of control
- T/C [2]: 91, 93, 97, 168 % of control
- T/C (dose: 200.0 mg/kg/injection, schedule: Q04DX002 (ip), vehicle: saline with Tween-80): 87, 94, 95, 104 % of control
- T/C [3]: 87, 93, 101, 106 % of control
- T/C (dose: 400.0 mg/kg/injection, schedule: Q04DX002 (ip), vehicle: saline with Tween-80): 88, 97, 102, 161 % of control

SMILES: CN(C)C(=O)N/N=C/c1ccc(Cl)cc1
- survivor count [3]: 3 of 6

SMILES: NC(=S)N/N=C(\c1ccc(F)cc1)C1CC1
- survivor count (dose: 4.0 mg/kg/injection, schedule: Q01DX Z (oral), vehicle: methylcellulose (MC)): 3 of 6
- survivor count (dose: 15.0 mg/kg/injection, schedule: Q01DX Z (ip), vehicle: methylcellulose (MC)): 0 of 6
- survivor count (dose: 16.0 mg/kg/injection, schedule: Q01DX Z (oral), vehicle: methylcellulose (MC)): 1 of 6
- survivor count (dose: 30.0 mg/kg/injection, schedule: Q01DX Z (ip), vehicle: methylcellulose (MC)): 0 of 6
- survivor count (dose: 32.0 mg/kg/injection, schedule: Q01DX Z (oral), vehicle: methylcellulose (MC)): 0 of 6
- survivor count (dose: 60.0 mg/kg/injection, schedule: Q01DX Z (ip), vehicle: methylcellulose (MC)): 0 of 6
- survivor count (dose: 120.0 mg/kg/injection, schedule: Q01DX Z (ip), vehicle: methylcellulose (MC)): 0 of 6

SMILES: CC1=CC(C)(C)NC(=S)N1C
- survivor count (dose: 112.0 mg/kg/injection, schedule: Q01DX Z (ip), vehicle: methylcellulose (MC)): 6 of 6
- survivor count (dose: 250.0 mg/kg/injection, schedule: Q01DX Z (ip), vehicle: methylcellulose (MC)): 5 of 6
- survivor count (dose: 375.0 mg/kg/injection, schedule: Q01DX Z (ip), vehicle: methylcellulose (MC)): 1 of 6

SMILES: Cc1cc(NCCN(C(C)C)C(C)C)nc(Nc2nc3ccc(Cl)cc3[nH]2)n1
- survivor count (dose: 25.0 mg/kg/injection, schedule: Q01DX009 (ip), vehicle: saline with Tween-80): 6 of 6
- survivor count [1]: 6 of 6
- survivor count [2]: 1 of 6
- survivor count [3]: 0 of 6

SMILES: CCCCCCC/C=N\N=C(N)N
- survivor count (dose: 120.0 mg/kg/injection, schedule: Q01DX Z (ip), vehicle: carboxymethylcellulose (CMC)): 1 of 6

SMILES: CCCCNC(=O)Oc1c(Cl)cc(Cl)c(Cl)c1[N+](=O)[O-]
- survivor count (dose: 100.0 mg/kg/injection, schedule: Q01DX009 (ip), vehicle: Klucel (hydroxypropylcellulose) (HPC)): 6 of 6
- survivor count (dose: 200.0 mg/kg/injection, schedule: Q01DX009 (ip), vehicle: Klucel (hydroxypropylcellulose) (HPC)): 3 of 6
- survivor count (dose: 400.0 mg/kg/injection, schedule: Q01DX009 (ip), vehicle: Klucel (hydroxypropylcellulose) (HPC)): 0 of 6

SMILES: N#Cc1c(CBr)ccc2ccccc12
- survivor count (dose: 150.0 mg/kg/injection, schedule: Q01DX001 (ip), vehicle: saline): 3 of 6
- survivor count (dose: 300.0 mg/kg/injection, schedule: Q01DX001 (ip), vehicle: saline): 1 of 6

SMILES: O=[N+]([O-])c1ccc(SSC(Cl)(Cl)Cl)cc1
- survivor count [1]: 3 of 6
- survivor count [2]: 0 of 6
- survivor count [3]: 0 of 6

SMILES: CCC(C)n1ncc2c(N(C)C)ncnc21 (configuration not stated)
- survivor count (dose: 200.0 mg/kg/injection, schedule: Q01DX009 (ip), vehicle: saline): 6 of 6
- survivor count (dose: 400.0 mg/kg/injection, schedule: Q01DX001 (ip), vehicle: saline): 1 of 6
